Values from PubChem BioAssay AID504784 (Drosophila RNAi Screening Center, 2011).
The screen tested about 17,000 reagents; below is an unselected part of those with a known target gene and a result. 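Each column is one replicate's B-score; the combined score over replicates was not deposited, so single values may mislead.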 Reagents against one gene are numbered here. Names joined by + are all predicted targets of the reagent.

Aim: 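Genome-wide knock-down for genes giving too much or too little stored lipid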 (primary screen)
System: Drosophila Kc167 embryonic cells
Knock-down reagent: long dsRNA against Drosophila genes, about 250 ng dsRNA per well
Timing: 4 days
Treatment: cells fed 400 µM oleic acid bound to BSA
Read-out: 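Microscope images give a droplet-to-nucleus area ratio, taken as log and converted to a screen-wide B-score; higher values mean greater lipid storage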
Reading the numbers: droplet/nuclear area B-score: higher = more stored lipid (overstorage)

predicted target	reagent	droplet/nuclear area B-score, replicate 1	droplet/nuclear area B-score, replicate 2
Coop	1	-0.0141	0.0765
CG11791	1	4.18	0.738
CG32280	1	-0.128	-0.178
CG11127	1	2.82	0.0844
CG7694	1	2.25	0.771
CG5112	1	1.4	-0.00339
S6kII	1	0.958	0.882
Cyp4d1	1	-1.93	0.324
Cyp4d1	2	-0.11	0.355
clos	1	-0.781	-0.984
clos	2	0.00267	1.52
clos	3	-0.903	-1.36
clos	4	0.834	0.81
clos	5	-0.608	-0.607
RpL38	1	4.12	4.94
Ir60a	1	-0.197	-0.0996
scpr-A + scpr-C + scpr-B	1	-0.167	-1.07
Grip84	1	-1.07	0.185
Cp38	1	0.395	0.189
Dtd	1	-0.777	-0.641
CG12863	1	-2.01	-0.0357
CG14507	1	-1.75	0.183
CG1827	1	0.698	-0.171
CG17999	1	1.75	-0.695
vls	1	-1.4	1.15
chic	1	-0.0586	-0.392
antr	1	-0.896	-0.0438
CG32313	1	-0.00418	1.13
CG30377	1	-2.01	0.526
CG30377	2	-0.383	0.054
Ravus	1	0.363	-2.85
CG33080	1	-0.489	-0.498
CG33080	2	-0.708	-1.76
CG33080	3	-0.0423	-0.337

Only “droplet/nuclear area B-score, replicate 1”, for 3 of the entries above:
antr = -0.896
CG32313 = -0.00418
CG30377 #1 = -2.01
